No constants are given. Whether binding was seen depends on the method and setting. For part of these data: Binding seen in cells or lysates may run through a third protein. Some results given as binding are weak or reduced against the parent protein; the word gives no strength.
Legend:
[1] = target: RyR2 N-terminal fragment (RyR2 residues 1 - 906), GAL4 fusions for yeast two-hybrid (human) (UniProt Q92736); assay: two-hybrid; GAL4 system in yeast; colony-lift filter paper β-Gal assay (X-Gal), 30 °C; bait: GAL4 DNA-BD fusions, prey: AD4L
[2] = target: RyR2 N-terminal fragment (RyR2 residues 1 - 906), GAL4 fusions for yeast two-hybrid (human) (UniProt Q92736); assay: two-hybrid; GAL4 system in yeast; quantitative liquid culture β-Gal assay (ONPG), 30 °C; normalized against the positive control pVA3 + pTD1
[3] = target: RyR2 N-terminus domain (residues 1 - 906), cMyc-tagged (BT4L) or HA-tagged (AD4L), expressed in HEK293 (human) (UniProt Q92736); assay: co-IP; HA-tagged AD4L immunoprecipitated with Ab^HA and Protein-A sepharose from CHAPS-solubilized, dithiothreitol-treated lysate of co-transfected HEK293 cells; blot with Ab^cMyc; non-immune rabbit IgG as negative control

“RyR2 N-terminal fragment (RyR2 residues 1 - 906), GAL4 fusions for yeast two-hybrid (from UniProt Q92736 1-906) (domain or fragment)” was tested, and the binding [1] was “binds” and the binding [2] was “binds”.

B1: RyR2 N-terminus domain (residues 1 - 906), cMyc-tagged (BT4L) or HA-tagged (AD4L), expressed in HEK293 (domain or fragment, human, UniProt Q92736 1-906, looked up)
chain: MADGGEGEDEIQFLRTDDEVVLQCTATIHKEQQKLCLAAEGFGNRLCFLESTSNSKNVPPDLSICTFVLEQSLSVRALQEMLANTVEKSEGQVDVEKWKFMMKTAQGGGHRTLLYGHAILLRHSYSGMYLCCLSTSRSSTDKLAFDVGLQEDTTGEACWWTIHPASKQRSEGEKVRVGDDLILVSVSSERYLHLSYGNGSLHVDAAFQQTLWSVAPISSGSEAAQGYLIGGDVLRLLHGHMDECLTVPSGEHGEEQRRTVHYEGGAVSVHARSLWRLETLRVAWSGSHIRWGQPFRLRHVTTGKYLSLMEDKNLLLMDKEKADVKSTAFTFRSSKEKLDVGVRKEVDGMGTSEIKYGDSVCYIQHVDTGLWLTYQSVDVKSVRMGSIQRKAIMHHEGHMDDGISLSRSQHEESRTARVIRSTVFLFNRFIRGLDALSKKAKASTVDLPIESVSLSLQDLIGYFHPPDEHLEHEDKQNRLRALKNRQNLFQEEGMINLVLECIDRLHVYSSAAHFADVAGREAGESWKSILNSLYELLAALIRGNRKNCAQFSGSLDWLISRLERLEASSGILEVLHCVLVESPEALNIIKEGHIKSIISLLDKHGRNHKVLDVLCSLCVCHGVAVRSNQHLICDNLLPGRDLLLQTRLVNHVSSMRPNIFLGVSEGSAQYKKWYYELMVDHTEPFVTAEATHLRVGWASTEGYSPYPGGGEEWGGNGVGDDLFSYGFDGLHLWSGCIARTVSSPNQHLLRTDDVISCCLDLSAPSISFRINGQPVQGMFENFNIDGLFFPVVSFSAGIKVRFLLGGRHGEFKFLPPPGYAPCYEAVLPKEKLKVEHSREYKQERTYTRDLLGPTVSLTQAAFTPIPVDTSQIVLPPHLERIREKLAENIHELWVMNKIELGWQYGP
notes: ryanodine receptor 2 (RyR2), human, residues 1-906; Two copies of the same stretch, each with ONE tag: in the co-IP cMyc-BT4L and HA-AD4L were co-expressed; in the cross-linking cMyc-BT4L was expressed alone; also called cMyc-BT4L; source: HEK293, transiently transfected (calcium phosphate), in lysate or homogenate
In the case of B1, the binding [3] is reported as “binds”.

Reference: paper PMC5065051, “Genetic and Biochemical Approaches for In Vivo and In Vitro Assessment of Protein Oligomerization: The Ryanodine Receptor Case Study” (Journal of Visualized Experiments : JoVE, 2016)
